Measurements published in PubChem BioAssay AID493014 (National Center for Advancing Translational Sciences (NCATS), 2011).
About 170 (0.05%) of roughly 340,000 compounds were called active. Inconclusive results, whose numbers are uncertain, are shown with a selection of clear calls. Calls come from the whole dose curve; as a rule, active = well fitted inhibition curve with a large enough effect in the signal ratio, with a control signal flat (not every such curve was filed as active); inconclusive = small, poorly fitted or top-dose-only effect, or effect the other way, or a change in a side signal; inactive = flat fitted curve, though single readings scatter; the % refers to the signal ratio. Where the call is inconclusive, the potency comes from a doubtful curve fit.

Assay: qHTS Assay to Find Inhibitors of Chronic Active B-Cell Receptor Signaling;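 for activity change, negative = inhibition: plate controls were basal doxycycline-induced cells for no effect and cells given 10 µM MG132 for full effect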
Settings: ABC-DLBCL IkBa-CBG/CBR reporter, luminescence ratio (green luciferase fused to IkBa over red control in TMD8 lymphoma cells), 4 h; activity change, negative = inhibition: at 46.1 µM (top of the series) unless noted
Procedure, shortened: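 TMD8 ABC-DLBCL cells carrying doxycycline-inducible green luciferase fused to IkappaBalpha plus unfused red luciferase were exposed to compounds (up to 46 uM) for 4 hrs at 37C. Activity came from the overlap-corrected green/red luminescence ratio.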
Potency is the fitted concentration of half-maximal effect.

| Compound | activity change, negative = inhibition | Potency |
| --- | --- | --- |
| CCNc1nc2c(c(=O)[nH]c(=O)n2C)n1CCCc1ccccc1 | inactive: -6.99% |  |
| COCCn1c(SCC(=O)NC(=O)NC2CCCCC2)nc2ccccc2c1=O | inconclusive: 3.97% |  |
| CC(NC(=O)Cc1ccccc1)C(=O)O (configuration not stated) | inconclusive: -1.55% |  |
| Cc1cc(Cl)ccc1OC(C)C(=O)Nc1cnn(CCCC(=O)O)c1 (configuration not stated) | inactive: -2.51% |  |
| O=C(NCC(=O)N1CCCC(C(F)(F)F)C1)c1ccccc1F (configuration not stated) |  | inconclusive: 20.6 µM [rising, partial curve, poor fit] |
| Cc1onc(-c2c(F)cccc2Cl)c1C(=O)Nc1c(C)n(C)n(-c2ccccc2)c1=O | inconclusive: 1.81% |  |
| O=C1C=C(NNC(=O)c2cccnc2)CC(c2ccco2)C1 (configuration not stated) |  | inconclusive: 35.5 µM [falling, single point] |
| Cc1cc2c(C)nc(N/N=C/c3ccc(F)cc3)nc2o1 |  | inconclusive: 29.1 µM [falling, single point] |
| COC(=O)/C=C1\S/C(=N\N=C\CC(=O)OC)NC1=O | inactive: 10.2% |  |
| COCCOC(=O)C1=C(C)NC(=O)NC1c1ccc(OC(=O)c2ccco2)c(OC)c1 (configuration not stated) | inconclusive: 1.76% |  |
| Cc1c(Cl)cccc1Nc1nc(N)nc(CSc2nc3ccccc3s2)n1 | inconclusive: 5.15% |  |
| CCc1ccc(CNc2ccc(O)cc2)cc1 | inactive: -11.2% |  |
| O=C(CCC(=O)N1CCSc2ccccc21)NCc1ccc(Cl)cc1 | inconclusive: 18.1% |  |
| Cc1cccc(CSc2nn3c(=O)c(C)nnc3s2)c1 | inconclusive: 1.56% |  |
| COc1ccc(C(=O)C=CNNC(=O)c2ccc(Cl)cc2)cc1 |  | inconclusive: 12.6 µM [falling, partial curve] |
| Cc1cc(C(=O)NN=C2CCCCCCC2)c2ccccc2n1 |  | inconclusive: 13 µM [falling, partial curve] |
| CCCn1c(SCC(=O)NC(C)(C)C)nnc1-c1ccco1 | inactive: -12.2% |  |
| COc1ccccc1NC(=O)C(NC(=O)OC(C)(C)C)C(C)OCc1ccccc1 (configuration not stated) | inconclusive: 11% |  |
| Cc1ccc2nc(C)c(C(=O)N/N=C/c3cccc([N+](=O)[O-])c3)cc2c1 | inconclusive: 2.12% |  |
| Cc1ccc2oc(C(F)(F)C(F)F)cc(=O)c2c1 | inconclusive: 10% |  |
| CC(=O)Nc1cccc(C(=O)Nc2ccccc2C(=O)O)c1 |  | inconclusive: 2.91 µM [falling, partial curve] |

| Compound | activity change, negative = inhibition | Potency |
| --- | --- | --- |
| Cc1ccc(NC(=O)c2ccc(-n3cccn3)c([N+](=O)[O-])c2)cc1 | inconclusive: -162% |  |
| N#Cc1nc(COc2cccc(Cl)c2)oc1N1CCN(c2ccccc2)CC1 | inconclusive: -25% |  |
| COc1ccc(/C=N/NC(=S)NC2CCS(=O)(=O)C2)cc1 (configuration not stated) |  | inconclusive: 18.4 µM [rising, single point] |
| CC(NC(=O)COC(=O)CNC(=O)C1CCCCC1)c1ccccc1 (configuration not stated) | inactive: 7.12% |  |
| Cc1cccc(C)c1NC(=S)Nc1ccc(Cl)c(Cl)c1 | inactive: 3.75% |  |
| CSc1ccccc1NC(=O)CCc1ccccc1 |  | inconclusive: 25.1 µM [falling, single point] |
| O=C(CSc1nnc(-c2ccc(F)cc2)c2ccccc12)Nc1ccccc1 |  | inconclusive: 18.4 µM [falling, single point] |
| CN(C(=O)CSc1nc(N)c2c3c(sc2n1)CSC(C)(C)C3)c1ccccc1 | inconclusive: 22.5% |  |
| Cc1ccc(C)c(N2CCN(CCCNC(=O)Cn3cccc3C(=O)c3ccccc3C)CC2)c1 | inactive: -1.02% |  |
| FC(F)(F)c1ccc(C2[C@H]3CN(Cc4ccc(-c5ccccc5)cc4)[C@H](c4ccccc4)C34CC2(c2ccccc2)C4)cc1 (some centres not stated) | inconclusive: -0.0848% |  |
| COc1ccc2nc(NC(=O)c3ccoc3C)sc2c1 |  | inconclusive: 9.2 µM [falling, partial curve] |
| COc1ccc(C2c3[nH]c4ccccc4c3CCN2CCCn2cccn2)cc1C (configuration not stated) | inconclusive: 2.72% |  |
| CNC(=S)N1CCN(S(=O)(=O)c2ccc3ccccc3c2)CC1 | inconclusive: -14.9% |  |
| O=C(Nc1ccc(F)cc1)c1cccc(N2C(=O)c3ccccc3C2=O)c1 | inconclusive: -4.77% |  |
| O=[N+]([O-])c1ccc2nc(-c3ccccc3[N+](=O)[O-])[nH]c2c1 | inconclusive: -27.8% |  |
| O=C(CCCN1C(=O)/C(=C/c2ccccc2Cl)SC1=S)NCCCN1CCOCC1 |  | inconclusive: 15.8 µM [falling, single point] |
| CCN(CC)CCCNC(=S)N1CCn2c(nc3ccccc32)C1 | inactive: 2.58% |  |
| COc1ccc(SC[C@H](C)CN2CC[C@H](C)CCC2=O)cc1 | inactive: 4.41% |  |
| COc1ccc(S(=O)(=O)N2c3cc(Cl)ccc3Oc3nc4ccccc4nc32)cc1 | inactive: -12.4% |  |
| COC(=O)N1CCc2c(sc(NC(=O)C3COc4ccccc4O3)c2C(N)=O)C1 (configuration not stated) | inconclusive: 4.43% |  |
| O=c1[nH]c(CN2CCCCC2)nc2c1C1(CCCCC1)Cc1ccccc1-2 | inactive: -14.8% |  |

Of the compounds above, 2 contain a tert-butyl group.

| Compound | activity change, negative = inhibition | Potency |
| --- | --- | --- |
| CCCn1c(SCC(=O)NC(C)(C)C)nnc1-c1ccco1 | inactive: -12.2% |  |
| COc1ccccc1NC(=O)C(NC(=O)OC(C)(C)C)C(C)OCc1ccccc1 (configuration not stated) | inconclusive: 11% |  |
